{"sequences": {"note": "Sequences of proteins named here, by UniProt entry; tags and fusion partners are left off. A change or cut given only in a name is not applied to a line headed by its entry.", "UniProt Q9UNA4": "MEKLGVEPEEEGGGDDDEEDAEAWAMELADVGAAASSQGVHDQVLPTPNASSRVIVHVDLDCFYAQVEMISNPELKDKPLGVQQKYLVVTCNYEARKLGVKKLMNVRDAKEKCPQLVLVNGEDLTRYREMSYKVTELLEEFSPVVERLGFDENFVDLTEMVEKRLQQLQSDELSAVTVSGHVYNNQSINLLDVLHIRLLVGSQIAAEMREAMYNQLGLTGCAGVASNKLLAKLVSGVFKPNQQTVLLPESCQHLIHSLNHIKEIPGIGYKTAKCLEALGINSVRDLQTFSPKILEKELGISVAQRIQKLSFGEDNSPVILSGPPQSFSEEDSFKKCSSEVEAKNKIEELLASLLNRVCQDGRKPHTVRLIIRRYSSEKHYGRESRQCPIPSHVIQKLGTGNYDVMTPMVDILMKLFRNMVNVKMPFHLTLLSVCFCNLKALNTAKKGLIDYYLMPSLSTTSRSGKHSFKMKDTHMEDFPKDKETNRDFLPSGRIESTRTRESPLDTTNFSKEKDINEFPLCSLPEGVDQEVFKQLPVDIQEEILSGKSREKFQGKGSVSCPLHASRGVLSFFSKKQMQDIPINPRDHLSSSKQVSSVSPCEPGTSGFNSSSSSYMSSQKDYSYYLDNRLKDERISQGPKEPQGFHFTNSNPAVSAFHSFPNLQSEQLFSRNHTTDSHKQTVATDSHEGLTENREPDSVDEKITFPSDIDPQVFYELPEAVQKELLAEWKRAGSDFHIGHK"}, "source": "PubChem BioAssay AID588590", "about": "(National Center for Advancing Translational Sciences (NCATS), 2011)", "note": "Screen size: about 390,000 compounds; about 4,000 (1%) were called active. Inconclusive means that the source gave no clear call. Such entries were picked first, then a sample of the others. The call rests on the fitted dose curve; in most records, active means well fitted inhibition curve with a large enough effect; inconclusive means small, poorly fitted or top-dose-only effect, or another doubt; inactive means no such curve, though single readings can be large or run the other way. Potencies of inconclusive entries are doubtful fits and often do not repeat. Potency means the concentration at half of the fitted maximal effect.", "data": [{"target": "DNA polymerase iota (Homo sapiens) (UniProt Q9UNA4)", "assay": "qHTS for Inhibitors of Polymerase Iota", "details": "Pol iota fluorescent replication assay, 10 min; series mostly up to 115 µM", "in_short": "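Fluorescent replication assay read twice, at 0 min and 10 min after adding 50 nM (final) substrate. Enzyme (10 nM) and compounds were first incubated 15 min at room temperature; enzyme-free buffer wells were negative controls.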", "values": [{"smiles": "O=C(Nc1ccon1)c1ccc(N2CCCCC2)c([N+](=O)[O-])c1", "Potency": "inactive"}, {"smiles": "Cc1ccc(CNC(=O)c2cccc(NC(=O)N3CCSc4ncccc43)c2)cc1", "Potency": "inconclusive: 89.1 µM [inhibitor, single point]"}, {"smiles": "C/C=C\\C=C/C(=O)Nc1cccc(C2=NOC3(C2)C[C@@H](C(N)=O)N(C(=O)/C=C/C=C\\C)C3)c1", "note": "(stereo partly drawn)", "Potency": "active: 10 µM"}, {"smiles": "CCOc1ccc(Nc2cc(C)nc3ccc(C)cc23)cc1", "Potency": "inconclusive: 39.8 µM [inhibitor, partial curve, poor fit]"}, {"smiles": "NS(=O)(=O)c1ccc(NC(=O)CSc2ncnc3ccccc23)cc1", "Potency": "inactive"}, {"smiles": "Cc1cc(O)c(C(=O)/C=C/c2ccccc2Br)c(=O)o1", "Potency": "inconclusive: 22.4 µM [inhibitor, single point]"}, {"smiles": "CC(C)Cn1c(N)c(C(=O)CSc2nnnn2-c2ccc(Cl)cc2)c(=O)n(C)c1=O", "Potency": "inconclusive: 0.631 µM [inhibitor, full curve, poor fit]"}, {"smiles": "Cc1ccc(NC(=O)Cn2cc(C(=O)c3ccco3)c3ccccc32)c(C)c1", "Potency": "inconclusive: 79.4 µM [inhibitor, partial curve, poor fit]"}, {"smiles": "CN(C)S(=O)(=O)N(CC(=O)NCc1ccccc1)c1ccccc1", "Potency": "inconclusive: 79.4 µM [inhibitor, partial curve, poor fit]"}, {"smiles": "CCC(C)NC(=O)CSc1nnc(-c2ccc(C)cc2)c(-c2ccc(C)cc2)n1", "note": "(stereo not drawn)", "Potency": "inactive"}, {"smiles": "COc1ccc(-c2noc(CN(C(=O)Cc3ccc(C)cc3)C(C)C)n2)cc1", "Potency": "inconclusive: 89.1 µM [inhibitor, single point]"}, {"smiles": "Cn1c(/C(C#N)=C/c2ccncc2)nc2ccccc21", "Potency": "inconclusive: 39.8 µM [inhibitor, single point]"}, {"smiles": "O=C(Nc1ccccc1Cl)c1cc[n+](Cc2ccc([N+](=O)[O-])cc2)cc1", "Potency": "inconclusive: 17.8 µM [inhibitor, single point]"}, {"smiles": "COc1ccc(C(=O)N(Cc2ccccc2)Cc2ccc(OC)c(COc3ccc(NC(C)=O)cc3)c2)cc1", "Potency": "inconclusive: 14.1 µM [inhibitor, partial curve, poor fit]"}, {"smiles": "Clc1cc(CSc2ccccc2)nc(-c2ccccc2)n1", "Potency": "inconclusive: 56.2 µM [inhibitor, partial curve]"}, {"smiles": "Cc1cccc(C(=O)O/N=C2/CC3CCC2(C)C3(C)C)c1", "note": "(stereo not drawn)", "Potency": "inconclusive: 70.8 µM [inhibitor, partial curve, poor fit]"}, {"smiles": "CCOC(=O)N1CCc2c(sc3[nH]c(=S)[nH]c(=S)c23)C1", "Potency": "inactive"}, {"smiles": "O=C(/C=C/c1ccco1)NCC1COc2ccccc2O1", "note": "(stereo not drawn)", "Potency": "inconclusive: 28.2 µM [inhibitor, partial curve]"}, {"smiles": "CCc1ccccc1NC(=O)c1cccc(NC(=O)/C=C/c2ccco2)c1", "Potency": "inactive"}, {"smiles": "CCC/C(=N\\NC(=O)c1csc(C)c1C)c1cccs1", "Potency": "inconclusive: 2 µM [inhibitor, full curve, poor fit]"}, {"smiles": "COc1ccc(CCNC(=O)c2ccc3c(SCC(=O)O)c4c(nc3c2)CCCC4)cc1OC", "Potency": "inconclusive: 89.1 µM [inhibitor, single point]"}, {"smiles": "CCc1ccc(C(=O)CSc2nc(-c3ccccc3)nc3c2CCCC3)cc1", "Potency": "inactive"}, {"smiles": "COc1cccc(CNS(=O)(=O)c2ccc3c(c2)N(C(C)=O)CCO3)c1", "Potency": "inconclusive: 50.1 µM [inhibitor, partial curve, poor fit]"}, {"smiles": "CNC(=S)NNC(=O)c1sccc1C", "Potency": "inactive"}, {"smiles": "Cc1ccc(CN2C(=O)C(C)Nc3ncnc(N4CCOCC4)c32)cc1", "note": "(stereo not drawn)", "Potency": "inconclusive: 39.8 µM [inhibitor, single point]"}, {"smiles": "O=C(Nc1ccc2oc(-c3ccccc3)nc2c1)c1ccc2c(c1)OCCO2", "Potency": "inactive"}, {"smiles": "COc1cc(CNCc2cc(OC)ccc2OC)cc(OC)c1", "Potency": "inactive"}, {"smiles": "CC(=O)Nc1ccc(-c2cn3cc(C)ccc3n2)cc1", "Potency": "inactive"}, {"smiles": "Cc1cccc(Nc2nc(NCc3ccco3)c3ccccc3n2)c1", "Potency": "inactive"}, {"smiles": "Oc1ccc2ccccc2c1C=NC1CCCCC1", "Potency": "inconclusive: 31.6 µM [inhibitor, partial curve, poor fit]"}, {"smiles": "CCc1nc(N2CCN(C(=O)c3ccco3)CC2)c(C#N)c2c1COC(C)(C)C2", "Potency": "inactive"}, {"smiles": "O=C(N/N=C/C=C/c1ccco1)c1cccc([N+](=O)[O-])c1", "Potency": "inconclusive: 79.4 µM [inhibitor, partial curve, poor fit]"}, {"smiles": "O=C(O)c1cc(N2C(=O)C=CC2=O)cc(N2C(=O)C=CC2=O)c1", "Potency": "active: 1.12 µM"}, {"smiles": "CN(C)S(=O)(=O)c1cccc(NC(=S)Nc2cccc3cnccc23)c1", "Potency": "active: 2.82 µM"}, {"smiles": "O=C(NNC(=O)c1cccs1)c1cccc(F)c1", "Potency": "inconclusive: 89.1 µM [inhibitor, partial curve, poor fit]"}, {"smiles": "O=C(CCS(=O)(=O)c1ccccc1)Nc1ccc(-c2nc3ccccc3s2)cc1", "Potency": "inconclusive: 79.4 µM [inhibitor, partial curve]"}, {"smiles": "O=C(NCC(c1cccnc1)N1CCc2ccccc2C1)C(=O)Nc1cccc(Cl)c1", "note": "(stereo not drawn)", "Potency": "inactive"}, {"smiles": "O=C(O)c1ccc(Cn2cnc3c(=S)nc[nH]c32)cc1", "Potency": "inconclusive: 25.1 µM [inhibitor, partial curve, poor fit]"}, {"smiles": "Cn1c(=O)n(C)c2cc(N3CCOCC3)c(NS(=O)(=O)c3ccc(Br)cc3)cc21", "Potency": "inactive"}, {"smiles": "CCCCOC(=O)Nc1ccc(S(=O)(=O)Nc2ncccn2)cc1", "Potency": "inactive"}, {"smiles": "Cc1cccc(N2CCN(C(=O)CCCn3ncn4c(cc5occc54)c3=O)CC2)c1C", "Potency": "inconclusive: 89.1 µM [inhibitor, single point]"}, {"smiles": "COc1cc(/C=C2\\C(=N)N3N=C(CC(=O)N4CCOCC4)SC3=NC2=O)cc(OC)c1OC", "Potency": "inconclusive: 35.5 µM [inhibitor, partial curve, poor fit]"}, {"smiles": "O=C(COC(=O)c1ccc(S(=O)(=O)NCc2ccco2)cc1)Nc1ccc(Cl)cn1", "Potency": "active: 22.4 µM"}, {"smiles": "CC(C)C(=O)N1CCN(c2ccccc2NC(=S)NC(=O)/C=C/c2ccco2)CC1", "Potency": "inconclusive: 17.8 µM [inhibitor, partial curve, poor fit]"}, {"smiles": "O=c1[nH]c(Sc2ccc([N+](=O)[O-])cc2[N+](=O)[O-])nc2ccccc12", "Potency": "inconclusive: 20 µM [inhibitor, full curve]"}, {"smiles": "Cc1ccc(CCNS(=O)(=O)c2ccc3c(c2)CCN3C(=O)CCC(=O)O)cc1", "Potency": "inactive"}, {"smiles": "COC(=O)C1=C(C)N(Cc2ccc(C)cc2)C(=O)/C1=C\\c1cc(OC)c(OC)c(OC)c1", "Potency": "inconclusive: 7.08 µM [inhibitor, partial curve, poor fit]"}, {"smiles": "COc1ccc(CNC(=O)CCc2c(C)nn(-c3ccc(N4CCOCC4)nn3)c2C)cc1", "Potency": "inactive"}, {"smiles": "C=C/C(C)=C/[C@@]1(C)SC(=O)C(C)=C1O", "Potency": "inconclusive: 15.8 µM [inhibitor, partial curve]"}, {"smiles": "CC1CCC/C(=C\\c2ccc(O)cc2)C1=O", "note": "(stereo not drawn)", "Potency": "inactive"}, {"smiles": "COc1cccc(NC(=O)C2CCN(S(=O)(=O)c3ccc4[nH]c(=O)oc4c3)CC2)c1", "Potency": "inconclusive: 14.1 µM [inhibitor, partial curve, poor fit]"}, {"smiles": "O=C(Nc1ccccc1F)c1cnn2c1NC(=C1CC1)C=C2C(F)F", "Potency": "inconclusive: 89.1 µM [inhibitor, single point]"}, {"smiles": "Cc1ccc2ccc3cc(C(=O)Nc4ccc(C)c(F)c4)nc3c2[nH]1", "Potency": "active: 89.1 µM"}, {"smiles": "CN(C)C(CNC(=O)CCc1nc2sc3c(c2c(=O)[nH]1)CCCC3)c1ccccc1", "note": "(stereo not drawn)", "Potency": "inconclusive: 31.6 µM [inhibitor, partial curve, poor fit]"}, {"smiles": "CC(C)(C)C1CCc2c(C(=O)N/N=C/c3cccs3)csc2C1", "note": "(stereo not drawn)", "Potency": "inconclusive: 22.4 µM [inhibitor, full curve, poor fit]"}, {"smiles": "Cc1ccc(-c2cc(C(=O)Nc3ccc(S(=O)(=O)Nc4nccs4)cc3)c3ccccc3n2)c(C)c1", "Potency": "inconclusive: 28.2 µM [inhibitor, partial curve]"}, {"smiles": "CCOc1ccc(/C=C/c2ccc3ccccc3n2)cc1OCC", "Potency": "inconclusive: 20 µM [inhibitor, full curve]"}, {"smiles": "COc1cccc(OC)c1OCCCc1c(C)n[nH]c1C", "Potency": "inconclusive: 12.6 µM [inhibitor, partial curve, poor fit]"}, {"smiles": "COc1ccccc1-c1cc(C(=O)NCc2ccc(Cl)cc2)no1", "Potency": "inconclusive: 0.631 µM [inhibitor, full curve, poor fit]"}, {"smiles": "COc1ccc(Nc2nnc(-c3ccncc3)s2)cc1Cl", "Potency": "inactive"}, {"smiles": "O=C1ON=C(c2ccc([N+](=O)[O-])cc2)/C1=C/c1ccccc1O", "Potency": "inconclusive: 39.8 µM [inhibitor, single point]"}, {"smiles": "CCOc1ccc(NC(=O)CC2C(=O)N(c3cccc(C)c3)C(=O)N2CCC2=CCCCC2)cc1", "note": "(stereo not drawn)", "Potency": "inconclusive: 89.1 µM [inhibitor, single point]"}, {"smiles": "CSc1ccc(/C=C/c2nc3ccccc3n2S(=O)(=O)c2ccc(F)c(C)c2)cc1", "Potency": "inactive"}, {"smiles": "CCOC(=O)c1nnn(-c2nc(N(C)C)nc(N(C)C)n2)c1C", "Potency": "inactive"}, {"smiles": "O=C(CSc1nnc(-c2ccco2)n1Cc1ccccc1)NC(=O)NCc1ccco1", "Potency": "inconclusive: 70.8 µM [inhibitor, partial curve, poor fit]"}, {"smiles": "O=C(O)/C=C/c1ccc(S(=O)(=O)Nc2ccc(C(=O)NCC(=O)O)cc2)cc1", "Potency": "inconclusive: 15.8 µM [inhibitor, partial curve, poor fit]"}, {"smiles": "O=S(=O)(Nc1ccc(O)c2ccccc12)c1cccs1", "Potency": "inconclusive: 7.94 µM [inhibitor, full curve, poor fit]"}, {"smiles": "Cc1cc(NC(=O)c2ccco2)cc(-c2nc3cc(Cl)ccc3o2)c1O", "Potency": "inconclusive: 79.4 µM [inhibitor, single point]"}]}]}
